This experiment concerns the target protein phosphatase-1 alpha (PP1α) (mouse (endogenous in hippocampus)) (UniProt P62137). Description: co-IP; whole mouse hippocampus lysate (50 mM Tris, 120 mM NaCl, 0.5% NP-40); IP with rabbit polyclonal anti-PP1α, pansorbin-protein A beads, 4°C; washed in high-salt buffer (500 mM NaCl, 1% NP-40); blots for NR2B and NR1; rabbit IgG as control.

Sequences of proteins named here, by UniProt entry; tags and fusion partners are left off. Residues count along the entry.
UniProt P62137: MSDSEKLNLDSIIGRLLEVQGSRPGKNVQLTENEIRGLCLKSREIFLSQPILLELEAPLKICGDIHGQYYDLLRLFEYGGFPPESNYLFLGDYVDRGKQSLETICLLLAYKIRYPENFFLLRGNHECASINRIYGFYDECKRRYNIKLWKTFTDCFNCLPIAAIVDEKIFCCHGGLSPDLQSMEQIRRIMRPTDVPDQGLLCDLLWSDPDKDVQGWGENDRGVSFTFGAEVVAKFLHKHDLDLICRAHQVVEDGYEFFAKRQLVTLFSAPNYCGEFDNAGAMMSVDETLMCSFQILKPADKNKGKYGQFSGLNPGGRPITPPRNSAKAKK
UniProt Q01097, residues 27-1482: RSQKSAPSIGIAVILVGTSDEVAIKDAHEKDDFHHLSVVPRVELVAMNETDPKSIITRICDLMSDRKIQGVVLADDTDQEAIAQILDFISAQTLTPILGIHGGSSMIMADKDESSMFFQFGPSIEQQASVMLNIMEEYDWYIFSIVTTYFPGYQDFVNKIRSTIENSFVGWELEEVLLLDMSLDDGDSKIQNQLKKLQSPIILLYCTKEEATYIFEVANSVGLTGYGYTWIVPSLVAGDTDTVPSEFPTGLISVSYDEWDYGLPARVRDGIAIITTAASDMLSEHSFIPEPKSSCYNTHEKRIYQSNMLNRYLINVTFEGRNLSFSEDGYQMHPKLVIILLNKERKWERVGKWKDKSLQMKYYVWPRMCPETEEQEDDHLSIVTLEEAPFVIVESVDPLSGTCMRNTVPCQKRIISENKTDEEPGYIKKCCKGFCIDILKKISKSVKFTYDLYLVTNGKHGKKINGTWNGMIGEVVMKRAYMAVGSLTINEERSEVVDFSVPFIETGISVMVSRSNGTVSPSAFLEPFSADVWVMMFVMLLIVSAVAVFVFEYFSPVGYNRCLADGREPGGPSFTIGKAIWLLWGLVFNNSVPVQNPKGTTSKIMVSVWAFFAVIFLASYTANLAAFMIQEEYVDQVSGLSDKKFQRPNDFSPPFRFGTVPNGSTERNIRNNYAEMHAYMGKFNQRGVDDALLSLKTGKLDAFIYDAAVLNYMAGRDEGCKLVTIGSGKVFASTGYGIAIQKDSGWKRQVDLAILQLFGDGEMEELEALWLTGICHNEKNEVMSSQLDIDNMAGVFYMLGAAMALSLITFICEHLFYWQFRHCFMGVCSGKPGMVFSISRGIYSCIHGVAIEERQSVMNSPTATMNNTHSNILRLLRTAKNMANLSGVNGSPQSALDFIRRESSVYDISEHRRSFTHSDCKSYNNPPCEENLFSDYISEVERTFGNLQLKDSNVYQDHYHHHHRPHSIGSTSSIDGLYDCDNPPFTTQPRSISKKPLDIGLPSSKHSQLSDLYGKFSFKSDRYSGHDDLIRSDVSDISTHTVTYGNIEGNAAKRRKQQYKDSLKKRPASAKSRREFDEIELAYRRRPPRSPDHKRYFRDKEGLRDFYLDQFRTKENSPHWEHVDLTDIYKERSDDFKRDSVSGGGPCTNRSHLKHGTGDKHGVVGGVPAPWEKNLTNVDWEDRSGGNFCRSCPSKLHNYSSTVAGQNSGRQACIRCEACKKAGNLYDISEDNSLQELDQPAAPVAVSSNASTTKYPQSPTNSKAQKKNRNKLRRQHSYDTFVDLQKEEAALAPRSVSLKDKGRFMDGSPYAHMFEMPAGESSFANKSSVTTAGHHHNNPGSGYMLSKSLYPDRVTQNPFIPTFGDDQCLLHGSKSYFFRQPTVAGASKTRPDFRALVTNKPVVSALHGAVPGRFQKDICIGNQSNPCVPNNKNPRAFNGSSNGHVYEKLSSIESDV

These are yes or no findings as the source states them, for the method shown. Binding seen in cells or lysates may run through a third protein. Some results given as binding are weak or reduced against the parent protein; the word gives no strength.

With “NMDA receptor subunit NR2B (from UniProt Q01097 27-1482)”, the binding result was “binds”.

These data come from paper PMC3316588.
